Measurements reported in PubChem BioAssay AID504808 (Drosophila RNAi Screening Center, 2011).
Purpose: 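Genes whose loss lifts activity of an E2F-responsive reporter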 (primary screen). System: Drosophila S2 cells. Reagent: long dsRNA against Drosophila genes. Measured: 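Firefly luciferase driven by E2F sites, normalised to Renilla luciferase on the same minimal promoter, measured by plate reader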. Reading the numbers: E2F firefly: higher = more E2F reporter activity; Renilla normaliser: higher = more normaliser reporter signal. Call rule: 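Called active if the normalised E2F reporter went up by over 50%; the cutoff is arbitrary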.
The deposit covers about 21,000 reagents; below is an unselected part of those that have a named target and a result. Over the whole deposit, 18 (0.084%) are marked active. 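Raw counts without plate normalisation, one of two replicates; the ratio scores behind the calls were not deposited.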 A number with no mark means an inactive call. The numbers tell different reagents against one gene apart. Names joined by + are all predicted targets of the reagent. The record does not give: the amount of reagent, the time to read-out.

no.	target gene	reagent no.	E2F firefly, rep 1	Renilla normaliser, rep 1
1	nonA-l (nonA-like)	1	1.10e5	5844
2	CG14218	1	1.19e5	7549
3	spict (spichthyin)	1	78032	3856
4	CG13625	1	65822	3537
5	CG3795	1	1832	1040
6	Adk3 (Adenosine kinase 3)	1	78507	3007
7	CR16735 (pseudo)	1	1.22e5	5254
8	Art3 (Arginine methyltransferase 3)	1	74127	3626
9	CG7135	1	1.47e5	6347
10	CG13893	1	90464	3818
11	CG32719	1	81291	2767
12	Elp1 (Elongator complex protein 1)	1	71028	3903
13	GramD1B (GRAM domain containing 1B)	1	1.59e5	5037
14	GramD1B (GRAM domain containing 1B)	2	1.02e5	3674
15	l(3)07882 (lethal (3) 07882)	1	61629	3216
16	CG12239	1	8087	892
17	js (jiangshi)	1	1.09e5	6316
18	Rpi (Ribose-5-phosphate isomerase)	1	1.06e5	4030
19	CG18493	1	1.31e5	6020
20	alphaKap4 (alpha Karyopherin-4)	1	85432	3204
21	CG4546	1	1.05e5	5014
22	CG34284	1	1.32e5	10126
23	CG34026	1	93375	2962
24	yl (yolkless)	1	2.30e5	6082
25	CheA7a (Chemosensory protein A 7a)	1	1.07e5	5144
26	CG3376	1	80345	3309
27	Act5C (Actin 5C)	1	1.08e5	5538
28	CG32440	1	89448	3835
29	CG4372	1	96467	4412
30	Osi24 (Osiris 24)	1	1.33e5	6275
31	vlc (vulcan)	1	1.07e5	4614
32	Impbeta11 (Importin beta11)	1	1.05e5	4223
33	CG15358	1	1.67e5	6030
34	Sgs3 (Salivary gland secretion 3)	1	1.34e5	6102
35	gogo (golden goal)	1	99371	6564
36	gogo (golden goal)	2	1.36e5	5330

Continued, starting with the last 4 of the part before.
no.	target gene	reagent no.	E2F firefly, rep 1	Renilla normaliser, rep 1
33	CG15358	1	1.67e5	6030
34	Sgs3 (Salivary gland secretion 3)	1	1.34e5	6102
35	gogo (golden goal)	1	99371	6564
36	gogo (golden goal)	2	1.36e5	5330
37	CG13036 (retired record)	1	1.78e5	7439
38	glob3 (globin 3)	1	1.21e5	6188
39	CG13926	1	86395	4350
40	CG12347	1	1.33e5	8128
41	Nadk1b (NAD kinase 1b)	1	1.17e5	4795
42	Nadk1b (NAD kinase 1b)	2	2796	204
43	Nadk1b (NAD kinase 1b)	3	99968	4508
44	mRpS35 (mitochondrial ribosomal protein S35)	1	1.02e5	4230
45	CG33557	1	1.25e5	6086
46	CG17239	1	1.64e5	5830
47	cGlr1 (cGAS-like receptor 1)	1	1.38e5	4985
48	Gclm (Glutamate-cysteine ligase modifier subunit)	1	66242	4257
49	CG11912	1	85563	3389
50	CG33299	1	1.33e5	6182
51	Notum	1	1.65e5	9621
52	CG42741	1	1.00e5	4529
53	CG8852	1	1.42e5	5263
54	Trax (Translin associated factor X)	1	88738	3522
55	CG14331	1	1.12e5	6049
56	CG9698	1	1.16e5	6301
57	NdufV3 (NADH:ubiquinone oxidoreductase subunit V3)	1	74412	4432
58	scyl (scylla)	1	1.54e5	7678
59	blot (bloated tubules)	1	1.40e5	4081
60	blot (bloated tubules)	2	64450	3314
61	CG17078	1	1.53e5	5772
62	CG14562	1	1.36e5	6614
63	CG12641 (retired record)	1	89832	6625
64	ssp (sunspot)	1	61198	3796
65	ncd (non-claret disjunctional)	1	1403	784
66	CG9377	1	71960	3133
67	CG12746	1	65245	3539
68	CG34404	1	99449	5754
69	CG34404	2	75696	3347
70	Cp19 (Chorion protein 19)	1	92191	3851
71	Nepl19 (Neprilysin-like 19)	1	49299	3158
72	IntS8 (Integrator 8)	1	87224	3533
73	narya	1	1.52e5	5244
74	Fak (Focal adhesion kinase)	1	1.53e5	5280
75	CG31231	1	84868	2835
76	Ugt305A1 (UDP-glycosyltransferase family 305 member A1)	1	92912	3724
77	mthl15 (methuselah-like 15)	1	1.43e5	7445
78	CG5577	1	68473	3673
79	Fad2	1	79408	7159
80	TBC1d7 + mRpS24	1	1.02e5	5403
81	CG31342	1	77261	3621
82	CG31342	2	1.08e5	5425
83	CG10752	1	81132	3472
84	Top3beta (Topoisomerase 3beta)	1	7575	740
85	Dyrk2 (Dual-specificity tyrosine phosphorylation-regulated kinase 2)	1	78934	3708
86	Dhc93AB (Dynein heavy chain at 93AB)	1	1.34e5	6881
87	Syt12 (Synaptotagmin 12)	1	1.39e5	6217
88	wus (wurst)	1	1.65e5	5514
89	CG2961	1	1.23e5	5319
90	CG42319	1	1.06e5	4598
91	CG42319	2	93125	4025
92	CG10428	1	84826	3679
93	CG18528	1	1.05e5	6335
94	Nepl16 (Neprilysin-like 16)	1	1.01e5	6024
95	Cpr66Cb (Cuticular protein 66Cb)	1	99501	3770
96	CG13681 (retired record)	1	1.29e5	4828
97	CG13681 (retired record)	2	1.15e5	4547
98	CG13681 (retired record)	3	98556	5068
99	CG13681 (retired record)	4	1.04e5	3884
100	CG13681 (retired record)	5	1.02e5	4135
101	CG13681 (retired record)	6	76656	3607
102	dpr7 (defective proboscis extension response 7)	1	85911	2939
103	CG7231	1	1.51e5	5206
104	CG42703	1	1.21e5	4839
105	PyK (Pyruvate kinase)	1	1.49e5	8066
106	yrt (yurt)	1	81463	3969
107	Mco4 (Multicopper oxidase 4)	1	1.92e5	6423
